This list was built around the results that the source calls inconclusive (neither active nor inactive); the mix of calls is not that of the screen. Where a call stands in place of a potency, no number is given. Potencies of inconclusive entries are doubtful fits and often do not repeat. The source made the active and inactive calls. Calls follow the shape of the dose curve; as a rule, active = well fitted cell-killing curve with a large enough effect; inconclusive = small, poorly fitted or top-dose-only effect, or effect the other way; inactive = no such curve, though single readings can be large or run the other way.
Tested on: SKOV3
Test: Confirmatory qHTS for gynecologic anti-cancer compounds from libraries of approved drugs and bioactive compounds; also: nearly all actives have a fitted effect of over 55% in size
Conditions: gynecologic cancer cell panel viability, ATPlite luminescence, 48 h; series mostly up to 57.6 µM
Method in brief: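 Seeding 1,000 cells per well preceded overnight (16 h) attachment, after which 48 h drug treatment across 57.5 uM–0.977 nM (11 points) was applied. Remaining cellular ATP, detected by ATPlite luminescence, defined IC50.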
Potency is read from the fitted curve at half-maximal effect.

SMILES	Potency
C[C@H]1CCC/C=C/C2C[C@H](O)C[C@H]2[C@H](O)/C=C/C(=O)O1 (stereo not given in full)	inconclusive: 0.385 µM [cytotoxic, full curve]
C=C(C)[C@H]1Cc2c(ccc3c2O[C@@H]2COc4cc(OC)c(OC)cc4[C@@H]2C3=O)O1	inactive
CCN1CCN(C(=O)Cc2ccc(Nc3ncc(F)c(Nc4ccc(C(=O)Nc5ccccc5Cl)cc4)n3)cc2)CC1	inconclusive: 0.243 µM [rising, partial curve, poor fit]
CCOc1ccccc1-n1c(C(C)N2CCN(C(=O)COc3ccc(Cl)cc3)CC2)nc2ccccc2c1=O (stereo not given)	inactive
Cc1sc2c(c1C)C(c1ccc(Cl)cc1)=NC(CC(=O)OC(C)(C)C)c1nnc(C)n1-2 (stereo not given)	inconclusive: 0.432 µM [cytotoxic, full curve]
C[C@]12CC[C@H]3[C@@H](CCC4=CC(=O)CC[C@@H]43)[C@@H]1CC[C@@H]2OC(=O)CCc1ccccc1	inactive
CCC(=O)O[C@H]1CC[C@H]2[C@@H]3CCC4=CC(=O)CC[C@]4(C)[C@H]3CC[C@]12C	inactive
CCNC(=O)C[C@@H]1N=C(c2ccc(Cl)cc2)c2cc(OC)ccc2-n2c(C)nnc21	inconclusive: 1.37 µM [cytotoxic, full curve]
O=C(O)Cc1ccccc1	inactive
C/C=C(/C)C(=O)O[C@H]1C(C)=C2[C@H]([C@@H]1OC(=O)CCCCCCC)[C@@](C)(OC(C)=O)C[C@H](OC(=O)CCC)[C@@]1(O)[C@H]2OC(=O)[C@@]1(C)O	inconclusive: 7.69 µM [cytotoxic, partial curve, poor fit]

Gathered by group: those above with an aryl methoxy group
SMILES	Potency
C=C(C)[C@H]1Cc2c(ccc3c2O[C@@H]2COc4cc(OC)c(OC)cc4[C@@H]2C3=O)O1	inactive
CCNC(=O)C[C@@H]1N=C(c2ccc(Cl)cc2)c2cc(OC)ccc2-n2c(C)nnc21	inconclusive: 1.37 µM [cytotoxic, full curve]

— PubChem BioAssay AID1345085 (National Center for Advancing Translational Sciences (NCATS), 2018)
